These are yes or no findings as the source states them, for the method shown. A result given as binding can be weak or reduced; the word gives no strength.
Key:
[1] = target: T1, TPX2 construct 1 to 99 (Xenopus laevis) (UniProt Q6NUF4); test: BLI; Octet (ForteBio); TPX2 attached to sensors, importin concentration varied; normalized amplitudes; apparent Kd; both purified
T1 sequence: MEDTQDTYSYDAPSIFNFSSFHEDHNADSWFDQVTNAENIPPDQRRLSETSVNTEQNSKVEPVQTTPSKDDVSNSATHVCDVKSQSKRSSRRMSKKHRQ

[2] = target: T2, C-terminal half of TPX2 (amino acids 319-716) (Xenopus laevis) (UniProt Q6NUF4); test: as above
T2 sequence: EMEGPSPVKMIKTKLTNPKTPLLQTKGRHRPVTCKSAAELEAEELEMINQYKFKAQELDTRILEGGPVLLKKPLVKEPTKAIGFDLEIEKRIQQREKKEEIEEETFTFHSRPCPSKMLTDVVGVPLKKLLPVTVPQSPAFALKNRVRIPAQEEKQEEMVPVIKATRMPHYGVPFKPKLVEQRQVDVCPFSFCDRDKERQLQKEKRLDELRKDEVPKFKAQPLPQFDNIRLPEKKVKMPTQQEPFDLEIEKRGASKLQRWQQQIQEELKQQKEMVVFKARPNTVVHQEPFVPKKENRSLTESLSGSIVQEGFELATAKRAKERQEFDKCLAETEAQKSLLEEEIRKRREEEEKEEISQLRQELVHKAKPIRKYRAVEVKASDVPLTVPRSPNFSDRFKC

importin-αΔIBB (truncated importin-α without the importin-β-binding domain) (Xenopus laevis) (domain or fragment)
binding [1]: binds weakly | binding [2]: binds weakly

— article PMC8390506
